These results are taken from PMC5506012.

By UniProt entry, the sequences of proteins in these tests, tags left out. Residues count along the entry.
UniProt P84903, residues 23-685: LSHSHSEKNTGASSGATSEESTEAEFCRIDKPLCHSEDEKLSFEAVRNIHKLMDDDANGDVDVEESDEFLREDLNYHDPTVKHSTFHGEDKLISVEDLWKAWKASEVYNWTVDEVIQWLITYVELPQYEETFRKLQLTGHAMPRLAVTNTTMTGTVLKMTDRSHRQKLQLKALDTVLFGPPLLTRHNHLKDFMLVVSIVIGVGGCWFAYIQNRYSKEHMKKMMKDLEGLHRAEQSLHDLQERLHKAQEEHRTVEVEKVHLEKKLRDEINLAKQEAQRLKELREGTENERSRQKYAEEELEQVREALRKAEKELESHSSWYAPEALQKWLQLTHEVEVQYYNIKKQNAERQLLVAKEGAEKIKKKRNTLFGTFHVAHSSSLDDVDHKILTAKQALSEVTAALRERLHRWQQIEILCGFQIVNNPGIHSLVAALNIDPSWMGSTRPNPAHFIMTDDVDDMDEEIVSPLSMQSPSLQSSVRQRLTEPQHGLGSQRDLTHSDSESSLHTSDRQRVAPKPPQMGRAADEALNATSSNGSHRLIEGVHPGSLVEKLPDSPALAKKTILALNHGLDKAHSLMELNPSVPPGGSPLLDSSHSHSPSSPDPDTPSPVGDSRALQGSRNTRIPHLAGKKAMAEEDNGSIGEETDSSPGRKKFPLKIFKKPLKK
UniProt Q9QX01: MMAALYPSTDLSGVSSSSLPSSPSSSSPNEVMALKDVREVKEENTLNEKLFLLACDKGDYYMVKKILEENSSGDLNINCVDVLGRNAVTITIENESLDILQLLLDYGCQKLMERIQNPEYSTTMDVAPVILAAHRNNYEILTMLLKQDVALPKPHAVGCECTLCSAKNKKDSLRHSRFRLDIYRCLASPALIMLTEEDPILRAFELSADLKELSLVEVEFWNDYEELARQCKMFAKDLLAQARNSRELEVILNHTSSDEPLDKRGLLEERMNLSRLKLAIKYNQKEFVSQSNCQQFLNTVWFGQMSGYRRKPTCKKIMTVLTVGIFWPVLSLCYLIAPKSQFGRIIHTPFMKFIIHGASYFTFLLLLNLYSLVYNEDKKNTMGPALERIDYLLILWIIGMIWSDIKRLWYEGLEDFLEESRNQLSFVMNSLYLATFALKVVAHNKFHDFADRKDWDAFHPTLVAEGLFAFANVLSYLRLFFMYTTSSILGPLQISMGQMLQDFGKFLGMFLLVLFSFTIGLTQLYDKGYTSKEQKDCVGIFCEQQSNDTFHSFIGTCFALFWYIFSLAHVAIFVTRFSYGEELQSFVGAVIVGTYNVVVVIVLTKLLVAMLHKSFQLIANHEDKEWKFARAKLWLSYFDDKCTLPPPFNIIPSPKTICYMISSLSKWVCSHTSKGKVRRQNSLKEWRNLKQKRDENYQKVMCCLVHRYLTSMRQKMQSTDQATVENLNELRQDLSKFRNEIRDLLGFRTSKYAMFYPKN
UniProt O35119: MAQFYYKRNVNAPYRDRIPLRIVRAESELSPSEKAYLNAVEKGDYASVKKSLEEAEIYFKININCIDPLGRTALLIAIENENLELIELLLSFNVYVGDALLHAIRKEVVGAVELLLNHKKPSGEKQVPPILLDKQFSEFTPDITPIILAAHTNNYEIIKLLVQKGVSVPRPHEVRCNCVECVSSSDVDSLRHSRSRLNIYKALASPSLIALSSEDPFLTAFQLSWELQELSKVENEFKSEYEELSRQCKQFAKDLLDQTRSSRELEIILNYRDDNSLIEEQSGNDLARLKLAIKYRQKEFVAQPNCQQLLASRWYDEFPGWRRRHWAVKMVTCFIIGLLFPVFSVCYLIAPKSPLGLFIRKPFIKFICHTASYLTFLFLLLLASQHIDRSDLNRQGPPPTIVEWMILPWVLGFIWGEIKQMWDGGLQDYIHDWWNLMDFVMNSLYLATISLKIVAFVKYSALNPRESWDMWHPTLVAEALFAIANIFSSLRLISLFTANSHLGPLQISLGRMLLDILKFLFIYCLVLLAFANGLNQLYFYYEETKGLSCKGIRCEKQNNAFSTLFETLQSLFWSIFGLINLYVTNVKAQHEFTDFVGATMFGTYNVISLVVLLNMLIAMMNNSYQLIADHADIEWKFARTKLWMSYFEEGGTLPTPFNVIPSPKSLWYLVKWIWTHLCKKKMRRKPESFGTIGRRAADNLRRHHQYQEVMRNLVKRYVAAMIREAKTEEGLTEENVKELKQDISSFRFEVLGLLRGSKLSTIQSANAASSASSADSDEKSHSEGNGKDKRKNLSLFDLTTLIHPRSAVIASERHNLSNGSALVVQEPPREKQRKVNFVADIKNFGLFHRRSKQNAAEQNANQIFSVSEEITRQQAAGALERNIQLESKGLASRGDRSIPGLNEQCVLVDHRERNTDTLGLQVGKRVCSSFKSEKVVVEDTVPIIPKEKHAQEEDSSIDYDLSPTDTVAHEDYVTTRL
UniProt Q5M848: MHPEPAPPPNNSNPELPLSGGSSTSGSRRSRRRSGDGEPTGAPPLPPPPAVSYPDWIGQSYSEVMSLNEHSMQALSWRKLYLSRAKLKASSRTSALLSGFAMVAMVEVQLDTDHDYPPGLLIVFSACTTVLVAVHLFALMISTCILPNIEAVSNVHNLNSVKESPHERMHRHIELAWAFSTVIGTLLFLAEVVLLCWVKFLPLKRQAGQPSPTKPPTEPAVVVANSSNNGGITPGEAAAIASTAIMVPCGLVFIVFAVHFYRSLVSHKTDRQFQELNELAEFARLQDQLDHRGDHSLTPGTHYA

These are yes or no findings as the source states them, for the method shown. In cells and extracts the contact can be indirect. Some results given as binding are weak or reduced against the parent protein; the word gives no strength.

First the molecules themselves.
T1: Homer1 (rat (endogenous in rat carotid artery)) (UniProt Q9Z214)
T1 sequence: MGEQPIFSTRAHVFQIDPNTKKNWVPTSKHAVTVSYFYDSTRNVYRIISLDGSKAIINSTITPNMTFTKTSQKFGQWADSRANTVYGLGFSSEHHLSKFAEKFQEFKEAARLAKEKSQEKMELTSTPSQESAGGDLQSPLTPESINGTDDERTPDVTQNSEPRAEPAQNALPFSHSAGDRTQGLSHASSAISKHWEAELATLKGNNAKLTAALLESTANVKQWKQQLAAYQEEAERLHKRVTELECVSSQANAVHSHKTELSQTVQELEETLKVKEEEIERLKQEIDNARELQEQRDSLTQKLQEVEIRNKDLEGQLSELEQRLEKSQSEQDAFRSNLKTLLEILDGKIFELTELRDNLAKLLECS

B1: TRPC6 (protein, UniProt Q99N78 1-930)
chain: MSQSPGFVTRRGGSPKAAPGAGARRNESQDYLLMDELGDDGYPQLQQPPYGYYPSFRGNENRLTHRRQTVLREKGRRLANRGPAYMFNDHSTSLSIEEERFLDAAEYGNIPVVRKMLEECLSLNVNCVDYMGQNALQLAVANEHLEITELLLKKENLSRVGDALLLAISKGYVRIVEAILNHPAFAEGKRLATSPSQSELQQDDFYAYDEDGTRFSHDVTPIILAAHCQEYEIVHTLLRKGARIERPHDYFCKCTECSQKQKHDSFSHSRSRINAYKGLASPAYLSLSSEDPVMTALELSNELAVLANIEKEFKNDYRKLSMQCKDFVVGLLDLCRNTEEVEAILNGDAETRQPGDLARPNLSRLKLAIKYEVKKFVAHPNCQQQLLSIWYENLSGLRQQTMAVKFLVVLAVAIGLPFLALIYWCAPCSKMGKILRGPFMKFVAHAASFTIFLGLLVMNAADRFEGTKLLPNETSTDNARQLFRMKTSCFSWMEMLIISWVIGMIWAECKEIWTQGPKEYLFELWNMLDFGMLAIFAASFIARFMAFWHASKAQSIIDANDTLKDLTKVTLGDNVKYYNLARIKWDPTDPQIISEGLYAIAVVLSFSRIAYILPANESFGPLQISLGRTVKDIFKFMVIFIMVFVAFMIGMFNLYSYYIGAKQNEAFTTVEESFKTLFWAIFGLSEVKSVVINYNHKFIENIGYVLYGVYNVTMVIVLLNMLIAMINSSFQEIEDDADVEWKFARAKLWFSYFEEGRTLPVPFNLVPSPKSLLYLLLKFKKWMSELIQGHKKGFQEDAEMNKRNEEKKFGILGSHEDLSKFSLDRNQLAHNKQSSTRSSEDFHLNSFSNPPRQYQKIMKRLIKRYVLQAQIDKESDEVNEGELKEIKQDISSLRYELLEEKSQNTEDLAELIRKLGERLSLESKQEESRR
B2: TRPC3 (protein, UniProt Q9JMI9 1-909)
chain: MSTKVKKCREPARVTLPAPEEEDGEAEGAEPQRRRRGWRGVNGGLEPPCPRAPPSPGPDASSEGSPSRWRTAGMRDKGRRQAVRGPAFMFGARGPSLTAEEERFLDAAEYGNIPVVRKMLEESRTLNVNCVDYMGQNALQLAVGNEHLEVTELLLKKENLARIGDALLLAISKGYVRIVEAILGHPGFAASRRLTLSPCEQELRDDDFYAYDEDGTRFSPDITPIILAAHCHKYEVVHLLLLKGARIERPHDYFCRCADCAEKQRLDAFSHSRSRINAYKGLASPAYLSLSSEDPVLTALELSNELAKLANIEKEFKNDYRKLSMQCKDFVVGVLDLCRDSEEVEAILNGDLESVEPLERHGHKASLSRVKLAIKYEVKKFVAHPNCQQQLLTIWYENLSGLREQTIAIKCLVVLVVALGLPFLAIGYWIAPCSRLGKILRSPFMKFVAHAASFIIFLGLLVFNASDRFEGITTLPNITVIDYPKQIFRVKTTQFTWTEMLIMVWVLGMMWSECKELWLEGPREYIVQLWNVLDFGMLSIFIAAFTARFLAFLQATKAQQYVDSHVQESDLSEVTLPPEVQYFTYARDKWLPSDPQIISEGLYAIAVVLSFSRIAYILPANESFGPLQISLGRTVKDIFKFMVLFIMVFLAFMIGMFILYSYYLGAKVNPAFTTVEESFKTLFWSIFGLSEVTSVVLKYDHKFIENIGYVLYGIYNVTMVVVLLNMLIAMINSSYQEIEDDSDVEWKFARSKLWLSYFDDGKTLPPPFSLVPSPKSFVYFIMRITNFSKCRRRRLQKDLELGMGNSKSRLNLFTQSNSRVFESHSFNSILNQPTRYQQIMKRLIKRYVLKAQVDKENDEVNEGELKEIKQDISSLRYELLEDKSQATEELAILIHKLSEKLNPSALRCE

The first test has as its target STIM1 (rat (endogenous in rat carotid artery)) (UniProt P84903). Kind of test: co-IP; anti-STIM1 antibody (1 ug) added to 100 ul extract of media + neointima of balloon-injured (14 days) and uninjured rat carotid arteries, RIPA buffer, 2 h at 4 °C; protein A Sepharose 4B or Protein G Plus Agarose beads; Western blot of the partners. A general note: A western blot detects proteins with antibodies after separation by electrophoresis.
For the molecule TRPC1 (from UniProt Q9QX01 1-759), the binding result is on record as “binds”.
TRPC4 (from UniProt O35119 1-977): the binding entry is on record as “binds”.
Regarding Orai1 (from UniProt Q5M848 1-304), the binding result is listed as “binds”.

A further test concerns the target T1, Homer1 (rat (endogenous in rat carotid artery)). Kind of test: co-IP; anti-Homer1 antibody (1 ug) added to 100 ul extract of media + neointima of balloon-injured (14 days) and uninjured rat carotid arteries, RIPA buffer, 2 h at 4 °C; protein A Sepharose 4B or Protein G Plus Agarose beads; Western blot of the partners.
Regarding TRPC1 (from UniProt Q9QX01 1-759), the binding entry is given as “binds”.
For TRPC4 (from UniProt O35119 1-977), the binding result is listed as “binds”.
Turning to Orai1 (from UniProt Q5M848 1-304), the binding result is reported as “binds”.
Consider B1, for which the binding entry is recorded as “binds”.
Take B2: the binding entry is given as “binds”.

The next test deals with STIM1 (rat (endogenous in rat carotid artery)) (UniProt P84903). Kind of test: co-IP; anti-STIM1 antibody (1 ug) added to 100 ul extract of media + neointima of balloon-injured (14 days) and uninjured rat carotid arteries, RIPA buffer, 2 h at 4 °C; protein A Sepharose 4B or Protein G Plus Agarose beads; Western blot of the partners. The source holds these as a separate data set.
In the case of B1, the binding result is “binds”.
For the molecule B2, the binding result was “binds”.
